{"source": "patent US9476892B2", "about": "“Composition and method for measuring thallium influx and efflux” (priority 2007, dated 2016)", "assay": "Thallium sensitivity of fluorescent agents (fluorescence intensity change in the presence of thallium ions)", "assay_type": "physicochemical", "settings": "thallium sensitive fluorescent agents", "note": "Some compounds share one wording; it may come from a single statement."}
{"compound": "Nc1cc(S(=O)(=O)O)cc2cc(S(=O)(=O)O)cc(S(=O)(=O)O)c12", "note": "[ANTS]", "values": [{"measurement": "change in fluorescence intensity in the presence of thallium ions", "result": "decrease in fluorescence intensity"}]}
{"compound": "Cc1ccc(N(CC(=O)O)CC(=O)O)c(OCCOc2cc(-c3c4cc(Cl)c(=O)cc-4oc4cc(O)c(Cl)cc34)ccc2N(CC(=O)O)CC(=O)O)c1", "note": "[Fluo-3]", "values": [{"measurement": "change in fluorescence intensity in the presence of thallium ions", "result": "decrease in fluorescence intensity"}]}
{"compound": "O=C(O)CN(CC(=O)O)c1ccc(-c2c3cc(F)c(=O)cc-3oc3cc(O)c(F)cc23)cc1OCCOc1c(N(CC(=O)O)CC(=O)O)ccc(F)c1F", "note": "[Fluo-4FF]", "values": [{"measurement": "change in fluorescence intensity in the presence of thallium ions", "result": "increase in fluorescence"}]}
{"compound": "O=C([O-])COc1cc(NC(=O)c2ccc3c(c2)C(=O)OC32c3cc(Cl)c([O-])cc3Oc3cc([O-])c(Cl)cc32)ccc1N(CC(=O)[O-])CC(=O)[O-].[K+].[K+].[K+].[K+].[K+]", "note": "[Magnesium Green]", "values": [{"measurement": "change in fluorescence intensity in the presence of thallium ions", "result": "increase in fluorescence"}]}
{"compound": "COc1cc2cc(-c3ccc(C(=O)O)cc3C(=O)O)oc2cc1N1CCOCCOCCN(c2cc3oc(-c4ccc(C(=O)O)cc4C(=O)O)cc3cc2OC)CCOCCOCC1", "note": "[PBFI]", "values": [{"measurement": "change in fluorescence intensity in the presence of thallium ions", "result": "decrease in fluorescence intensity"}]}
{"compound": "Fluo-4", "values": [{"measurement": "change in fluorescence intensity in the presence of thallium ions", "result": "decrease in fluorescence intensity"}]}
